Measured values from US20250042957A1.
These are yes or no findings as the source states them, for the method shown. Some binding calls cover weakened binding; strength is not graded here.

Chains of the proteins cited; added tags and fusions are not shown. Lines headed by an entry give the natural chain unless they say otherwise; changes in a name come on top. A line that says so, or that is headed by a name, gives the form on record, which may keep a tag or linker.
VEGF165 (P15692, form named): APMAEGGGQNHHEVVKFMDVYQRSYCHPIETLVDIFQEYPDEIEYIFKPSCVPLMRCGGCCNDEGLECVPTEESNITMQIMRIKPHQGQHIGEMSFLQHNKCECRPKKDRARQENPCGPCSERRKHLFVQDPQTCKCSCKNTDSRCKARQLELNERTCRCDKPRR

Experiments:
Switchdrug DARPin 18-3 [1] = assay: HTRF: 20 nM Switchdrug DARPin with titrated soluble VEGF; read-out is the construct's binding to 1 nM biotinylated scCD3εγ (release of the α-CD3 binder)
Switchdrug DARPin 17-3 [2] = assay: as above
Switchdrug DARPin 13-3 = assay: as above
Switchdrug DARPin 15-3 = assay: as above
Switchdrug DARPin 17-3 [3] = assay: ELISA: 10 nM Switchdrug DARPin 17-3 pre-incubated with titrated soluble VEGF; read-out is the construct bound to plate-bound biotinylated scCD3εγ (release of the α-CD3 binder)
Switchdrug DARPin 17-1 = assay: ELISA: 10 nM Switchdrug DARPin 17-1 pre-incubated with titrated soluble VEGF; read-out is the construct bound to plate-bound biotinylated scCD3εγ (release of the α-CD3 binder)
Switchdrug DARPin 18-3 [4] = assay: ELISA: 100 nM Switchdrug DARPin 18-3 pre-incubated with titrated soluble VEGF; read-out is the construct bound to plate-bound biotinylated scCD3εγ (release of the α-CD3 binder)

Measured: binding

VEGF165 (from UniProt P15692 27-191) (ligand)
binds: all assays above
